Patent US9447093B2, “3,5-diarylazaindoles as DYRK1A protein inhibitors for the treatment of cognitive deficiencies associated with Down's syndrome and with Alzheimer's disease” (Centre National De La Recherche Scientifique, priority 2012, dated 2016)
At least one read-out could not be matched to a standard name with certainty.

System: KB cells
Assay: Cytotoxicity on cells of the KB line
Type: cell-based

Oc1ccc(-c2cnc3[nH]cc(-c4ccccc4)c3c2)c(O)c1 [F, 3-phenyl-5-(2,4-dihydroxyphenyl)-1H-pyrrolo[2,3-b]pyridine]
percentage of inhibition of KB cell growth (10^−5 M): 75%
percentage of inhibition of KB cell growth (10^−6 M): 9%

COc1ccc(-c2c[nH]c3ncc(-c4ccc(O)cc4)cc23)cc1F [Ic, 3-(3-fluoro-4-methoxyphenyl)-5-(4-hydroxyphenyl)-1H-pyrrolo[2,3-b]pyridine]
percentage of inhibition of KB cell growth (10^−6 M): 23%

Oc1ccc(-c2c[nH]c3ncc(-c4ccc(O)cc4O)cc23)cc1 [I′a, 3-(4-hydroxyphenyl)-5-(2,4-dihydroxyphenyl)-1H-pyrrolo[2,3-b]pyridine]
percentage of inhibition of KB cell growth (10^−5 M): 83%
percentage of inhibition of KB cell growth (10^−6 M): 21%

Oc1ccc(-c2cnc3[nH]cc(-c4ccc(F)c(F)c4)c3c2)cc1O [I′g, 3-(3,4-difluorophenyl)-5-(3,4-dihydroxyphenyl)-1H-pyrrolo[2,3-b]pyridine]
percentage of inhibition of KB cell growth (10^−6 M): 22%

Oc1ccc(-c2cnc3[nH]cc(-c4ccc(O)c(F)c4)c3c2)cc1 [I′h, 3-(3-fluoro-4-hydroxyphenyl)-5-(4-hydroxyphenyl)-1H-pyrrolo[2,3-b]pyridine]
percentage of inhibition of KB cell growth (10^−6 M): 13%
